Data source: PubChem BioAssay AID1224828 (NIAID, 2016)
In all, the deposit lists about 17,000 reagents; this is a random part of them. 762 of them (4.5%) count as active. 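Active calls include both raised and lowered p65 entry, mostly lowered; wells with fewer than 50 cells lack a z-score.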 The raw values are shown without normalisation. Reagents against one gene are numbered here.

Purpose: 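Regulators linking TLR4 signalling to p65 nuclear translocation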 (primary screen)
Cells: mouse RAW264.7 G9 macrophage reporter cells (GFP-p65, Tnf promoter-mCherry)
Reagent: siRNA pool against mouse genes, 100 nM
Duration: 2 days siRNA transfection, then 40 min LPS before fixation
Challenge: LPS (Salmonella minnesota R595) at 10 ng/ml
Read-out: 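Microscopy ratio of nuclear to perinuclear-ring GFP-p65 signal, scaled to the plate median; gene score is the average of two replicate robust z-scores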
Scale: p65 translocation robust z-score: higher = more nuclear NF-kappaB p65 after LPS than the plate median; nuclear/cytoplasmic p65 ratio: higher = more nuclear NF-kappaB p65
Active means: 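Called active when z exceeds 3.3 or falls under -1.56 (median of Tlr4 controls), giving activity score of at least 50; no calls for control wells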
Calls: active = hit (p65 shift raised or lowered); inactive = no clear change

gene,reagent no.,p65 translocation robust z-score,"nuclear/cytoplasmic p65 ratio, rep 1","nuclear/cytoplasmic p65 ratio, rep 2",low cell count flag,call
Igsf8,1,,1.43,1.18,fewer than 50 cells per well; well left out of scoring,inactive
Mef2b,1,-1.22,1.15,1.2,enough cells to score,inactive
Gusb,1,-1.06,1.23,1.29,enough cells to score,inactive
Bcl2a1d,1,-0.08,1.51,1.69,enough cells to score,inactive
Or51i2,1,-0.48,1.23,1.34,enough cells to score,inactive
Cldnd1,1,0.54,1.7,1.45,enough cells to score,inactive
Sp5,1,,1.35,1.19,fewer than 50 cells per well; well left out of scoring,inactive
Glipr1l2,1,,1.48,1.21,fewer than 50 cells per well; well left out of scoring,inactive
Ush1g,1,,1.21,1.06,fewer than 50 cells per well; well left out of scoring,inactive
Tagln3,1,,1.44,1.37,fewer than 50 cells per well; well left out of scoring,inactive
Cfap61,1,0.6,1.34,1.37,enough cells to score,inactive
Dnah1,1,-1.25,1.32,1.43,enough cells to score,inactive
Dnah1,2,-0.98,1.29,1.28,enough cells to score,inactive
Cpa6,1,0.66,1.74,1.68,enough cells to score,inactive
Trim62,1,0.34,1.41,1.5,enough cells to score,inactive
Ifna14,1,-1.05,1.28,1.26,enough cells to score,inactive
A730027B03Rik (retired record),1,-0.56,1.16,1.45,enough cells to score,inactive
Nipbl,1,0.06,1.29,1.42,enough cells to score,inactive
Nipbl,2,0.63,1.44,1.6,enough cells to score,inactive
Rbx1,1,0.96,1.61,1.69,enough cells to score,inactive
Pik3r1,1,1.65,1.93,1.6,enough cells to score,inactive
Stx6,1,0.41,1.46,1.29,enough cells to score,inactive
Pde8a,1,-0.48,1.4,1.29,enough cells to score,inactive
Rpp40,1,0.55,1.31,1.28,enough cells to score,inactive
